Reference: patent publication US8993768B2, “Tropolone compounds for treating or preventing retroviral infection” (The United States of America, as represented by the …, priority 2011, dated 2015)
Some results were stated once for a whole list of compounds, not compound by compound. For at least one compound, name, drawing or mass did not settle the structure.

What follows are molecules tested against T1, HIV-1 RT RNase H (Human immunodeficiency virus type 1 group M subtype B, UniProt P04585) (assay: Cleavage of the HIV-1 polypurine tract (PPT) primer, PPT/U3 junction). Conditions: 20 μM inhibitor.
T1 construct: RT is a p66/p51 heterodimer comprised of asymmetrically-organized subunits processed from the 165 kDa gag/pol polyprotein precursor; (His)6; made in house; host or cells: Escherichia coli
Type: biochemical
Procedure: FIG. 2A depicts a schematic model of RNA/DNA substrate, indicating the RNase H cleavage site at the PPT/U3 junction (< >). The PPT is indicated by the shaded box. FIG. 2B depicts the quantification of PPT cleavage data. All inhibitors were evaluated at 20 μM.
IC50 values were determined as previously reported (Budihas, S. R., et al., Nucleic Acids Res., 33(4):1249-56 (2005)), using an 18-nucleotide 3′-flourescein-labeled RNA annealed to a complementary 18-nucleotide 5′-dabsyl-labeled DNA. […] The reaction was initiated by adding 1 μl of 100 mM MgCl2 to 9 μl of mixture containing 4 ng enzyme, 200 nM substrate, 20 μM α-hydroxytropolones in 50 mM Tris, pH 8.0, 80 mM KCl, 2 mM DTT, and 10% DMSO at 37° C., and quenched with 10 μl of a gel-loading buffer after 10 minutes. Hydrolysis products were fractionated by denaturing polyacrylamide gel electrophoresis and visualized by fluorescent imaging (Typhoon Trio+, GE Healthcare, Piscataway, N.J.).
Since the high-throughput RNase H assay examines non-specific, “polymerase-independent” RNase H activity defined by the spatial separation of the DNA polymerase and RNase H active site of HIV-1 RT (Gopalakrishnan, V., et al., Proc. Natl. Acad. Sci. USA, 89(22):10763-7 (1992)), an examination of whether α-hydroxytropolones altered cleavage specificity on a more biologically-relevant substrate, namely the polypurine tract (PPT) primer, which must be processed from the RNA/DNA replication intermediate to initiate (+) strand DNA synthesis.
For Cc1cc(O)c(=O)c(O)c2c1CC(C(C)(O)CN1CCCCC1)CC2 (mixture of isomers) [Compound 1, 5,7-Dihydroxy-2-(1-hydroxy-1-methyl-2-piperidin-1-yl-ethyl)-9-methyl-1,2,3,4-tetrahydro benzocyclohepten-6-one], the “effect on cleavage specificity in the PPT assay” value (from here on “effect on cleavage specificity”) was “none altered cleavage specificity”.
In the case of CCN(CC)CC(C)(O)C1CCc2c(c(C)cc(O)c(=O)c2O)C1 (mixture of isomers) [Compound 3, 2-(2-Diethylamino-1-hydroxy-1-methyl-ethyl)-5,7-dihydroxy-9-methyl-1,2,3,4-tetrahydrobenzocyclohepten-6-one], the “effect on cleavage specificity” value is reported as “none altered cleavage specificity”.
In the case of Cc1cc(O)c(=O)c(O)c2c1CC(C(C)(O)CNCc1ccccc1F)CC2 (mixture of isomers) [Compound 4, 2-[2-(2-Fluoro-benzylamino)-1-hydroxy-1-methyl-ethyl]-5,7-dihydroxy-9-methyl-1,2,3,4-tetrahydrobenzocyclohepten-6-one], the “effect on cleavage specificity” value is reported as “none altered cleavage specificity”.
Cc1cc(O)c(=O)c(O)c2c1CC(C(C)(O)CNc1ccccc1)CC2 (mixture of isomers) [Compound 5, 5,7-Dihydroxy-2-(1-hydroxy-1-methyl-2-phenylamino-ethyl)-9-methyl-1,2,3,4-tetrahydrobenzocyclohepten-6-one] was tested, and the “effect on cleavage specificity” value was “none altered cleavage specificity”.
CCSCC(C)(O)C1CCc2c(c(C)cc(O)c(=O)c2O)C1 (mixture of isomers) [Compound 6, 2-(2-Ethylthio-1-hydroxy-1-methyl-ethyl)-5,7-dihydroxy-9-methyl-1,2,3,4-tetrahydrobenzocyclohepten-6-one] was tested, and the “effect on cleavage specificity” value was “none altered cleavage specificity”.
In the case of Cc1cc(O)c(=O)c(O)c2c1CC(C(C)(O)CSc1ccccc1)CC2 (mixture of isomers) [Compound 7, 5,7-Dihydroxy-2-(1-hydroxy-1-methyl-2-phenylthio-ethyl)-9-methyl-1,2,3,4-tetrahydrobenzocyclohepten-6-one], the “effect on cleavage specificity” value is reported as “none altered cleavage specificity”.
In the case of Cc1cc(O)c(=O)c(O)c2c1CC(C(C)(O)CSCc1ccccc1)CC2 (mixture of isomers) [Compound 8, 2-(2-Benzylthio-1-hydroxy-1-methyl-ethyl)-5,7-dihydroxy-9-methyl-1,2,3,4-tetrahydrobenzocyclohepten-6-one], the “effect on cleavage specificity” value is reported as “none altered cleavage specificity”.
For CCS(=O)(=O)CC(C)(O)C1CCc2c(c(C)cc(O)c(=O)c2O)C1 (mixture of isomers) [Compound 9, 2-(2-Ethanesulfonyl-1-hydroxy-1-methyl-ethyl)-5,7-dihydroxy-9-methyl-1,2,3,4-tetrahydrobenzocyclohepten-6-one], the “effect on cleavage specificity” value was “none altered cleavage specificity”.
Cc1cc(O)c(=O)c(O)c2c1CC(C(C)(O)CS(=O)(=O)c1ccccc1)CC2 (mixture of isomers) [Compound 11, 2-(2-benzenesulfonyl-1-hydroxy-1-methyl-ethyl)-5,7-dihydroxy-9-methyl-1,2,3,4-tetrahydrobenzocyclohepten-6-one] was tested, and the “effect on cleavage specificity” value was “none altered cleavage specificity”.
With Cc1cc(O)c(=O)c(O)c2c1CC(C(C)(O)CO)CC2 (mixture of isomers) [Compound 12, 2-(1,2-Dihydroxy-1-methyl-ethyl)-5,7-dihydroxy-9-methyl-1,2,3,4-tetrahydrobenzocyclohepten-6-one] the “effect on cleavage specificity” value was “none altered cleavage specificity”.
For Cc1cc(O)c(=O)c(O)c2c1CC(C(C)O)CC2 (mixture of isomers) [Compound 13, 5,7-Dihydroxy-2-(1-hydroxy-ethyl)-9-methyl-1,2,3,4-tetrahydrobenzocyclohepten-6-one], the “effect on cleavage specificity” value was “none altered cleavage specificity”.
In the case of Cc1cc(O)c(=O)c(O)c2c1CC(C(C)NCc1ccccc1)CC2 (mixture of isomers) [Compound 14, 2-(1-Benzylamino-ethyl)-5,7-Dihydroxy-9-methyl-1,2,3,4-tetrahydrobenzocyclohepten-6-one], the “effect on cleavage specificity” value is reported as “none altered cleavage specificity”.
With Cc1cc(O)c(=O)c(O)c2c1CC(C(C)(O)C[S+]([O-])Cc1ccccc1)CC2 (stereo not shown) [Compound 10, 2-(2-Benzylsulfinyl-1-hydroxy-1-methyl-ethyl)-5,7-dihydroxy-9-methyl-1,2,3,4-tetrahydrobenzocyclohepten-6-one] the “effect on cleavage specificity” value was “none altered cleavage specificity”.
